Results published in paper PMC6994238.
These are yes or no findings as the source states them, for the method shown. Some binding calls cover weakened binding; strength is not graded here.

Chains of the proteins cited; added tags and fusions are not shown.
UniProt P04690: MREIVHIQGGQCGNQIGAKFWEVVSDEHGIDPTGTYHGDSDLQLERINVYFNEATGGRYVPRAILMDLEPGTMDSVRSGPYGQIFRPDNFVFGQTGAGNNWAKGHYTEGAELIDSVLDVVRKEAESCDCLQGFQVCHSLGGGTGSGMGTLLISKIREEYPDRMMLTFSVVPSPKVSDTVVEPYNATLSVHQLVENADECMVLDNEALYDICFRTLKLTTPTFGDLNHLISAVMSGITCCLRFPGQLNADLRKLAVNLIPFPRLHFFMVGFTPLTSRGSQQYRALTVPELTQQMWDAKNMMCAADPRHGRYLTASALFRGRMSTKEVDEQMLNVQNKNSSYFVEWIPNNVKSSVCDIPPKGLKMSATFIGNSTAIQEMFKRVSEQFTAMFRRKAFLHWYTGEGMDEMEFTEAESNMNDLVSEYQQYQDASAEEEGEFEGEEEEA
UniProt B1B601: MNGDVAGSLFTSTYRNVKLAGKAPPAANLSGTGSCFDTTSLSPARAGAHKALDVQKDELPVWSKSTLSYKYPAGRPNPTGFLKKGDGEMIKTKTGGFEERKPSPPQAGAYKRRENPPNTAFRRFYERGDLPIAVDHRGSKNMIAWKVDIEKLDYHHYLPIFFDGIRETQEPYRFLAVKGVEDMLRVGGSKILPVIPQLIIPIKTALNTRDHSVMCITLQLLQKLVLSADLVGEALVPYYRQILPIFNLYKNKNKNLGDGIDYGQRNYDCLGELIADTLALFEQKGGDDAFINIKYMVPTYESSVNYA

Target: β-tubulin, Chlamydomonas reinhardtii (Chlamydomonas reinhardtii) (UniProt P04690)
Assay: cryo-EM structure; taxol-stabilised, 0.6 M NaCl-washed doublet microtubules isolated from Chlamydomonas flagella; 16 nm repeat map, focused refinement of the inner junction to 3.6 Å; atomic model PDB 6VE7

binding: binds
Substance: PArkin Co-Regulated Gene (PACRG), Chlamydomonas reinhardtii (from UniProt B1B601 1-307)
